# Measured values from PubChem BioAssay AID330 (DTP/NCI, 2004).
# The list does not hold the whole screen: it gathers tests that were run many times, whatever their T/C, doses with no T/C, and many T/C values between a quarter and a half above the control. Further doses and runs are listed elsewhere. T/C gives the treated animals as a percentage of the vehicle group. Some doses have a count of surviving animals in place of a T/C: the source holds a T/C of zero for them, seemingly a mark for toxic or unscored doses. Some doses without a T/C left all or most animals alive at the check, yet need not have been tolerated: the source hardly ever lists a survival T/C far under the control, and the zero likely stands for such cases as well. Survivors were counted at the toxicity check, usually on the fifth day, unless a day is given; later deaths do not show. Schedules are NCI's codes, taken here to give the interval after Q, in days (D) or hours (H), and the number of doses after X. Some molecules as drawn cover several salts, stereoisomers or complexes of the source; a dose is that of the sample tested. Where survival is the endpoint, the PubChem record calls one and a half times the control and up active, and a quarter to a half above the control has no call in these data; cut-offs in other NCI protocols can differ. Some entries were tested several times; the results are listed from low to high. Some T/C values are followed by the survivors on the day toxicity was checked, most often the fifth; without a count, all were alive then.
# Test system: P388 leukemia ip, CD2F1 mice, survival T/C
# Assay: NCI In Vivo Anticancer Drug Screen. Data for tumor model P388 Leukemia (intraperitoneal) in CD2F1 (CDF1) mice
# Conditions: T/C endpoint: median survival time, higher T/C = longer survival
# [1] = dose: 100.0 mg/kg/injection, schedule: Q01DX009 (ip), vehicle: saline
# [2] = dose: 200.0 mg/kg/injection, schedule: Q01DX009 (ip), vehicle: saline
# [3] = dose: 100.0 mg/kg/injection, schedule: Q01DX005 (ip), vehicle: Klucel (hydroxypropylcellulose) (HPC)
# [4] = dose: 200.0 mg/kg/injection, schedule: Q01DX005 (ip), vehicle: Klucel (hydroxypropylcellulose) (HPC)
# [5] = dose: 200.0 mg/kg/injection, schedule: Q01DX009 (ip), vehicle: saline with Tween-80
# [6] = dose: 50.0 mg/kg/injection, schedule: Q01DX005 (ip), vehicle: saline with Tween-80
# [7] = dose: 100.0 mg/kg/injection, schedule: Q01DX005 (ip), vehicle: saline with Tween-80
# [8] = dose: 200.0 mg/kg/injection, schedule: Q01DX005 (ip), vehicle: saline with Tween-80
# [9] = dose: 60.0 mg/kg/injection, schedule: Q01DX005 (ip), vehicle: saline with Tween-80
# [10] = dose: 60.0 mg/kg/injection, schedule: Q01DX005 (ip), vehicle: Klucel (hydroxypropylcellulose) (HPC)
# [11] = dose: 120.0 mg/kg/injection, schedule: Q01DX005 (ip), vehicle: Klucel (hydroxypropylcellulose) (HPC)
# [12] = dose: 240.0 mg/kg/injection, schedule: Q01DX005 (ip), vehicle: Klucel (hydroxypropylcellulose) (HPC)
# [13] = dose: 100.0 mg/kg/injection, schedule: Q01DX009 (ip), vehicle: saline with Tween-80
# [14] = dose: 50.0 mg/kg/injection, schedule: Q01DX009 (ip), vehicle: saline with Tween-80
compound,measurement,setting,value
Nc1ccc2cc3ccc(N)cc3nc2c1,T/C,"dose: 7.5 mg/kg/injection, schedule: Q01DX005 (ip), vehicle: saline",126 % of control
same,T/C,"dose: 16.5 mg/kg/injection, schedule: Q01DX009 (ip), vehicle: saline",125 % of control
same,T/C,"dose: 25.0 mg/kg/injection, schedule: Q01DX009 (ip), vehicle: saline, evaluated on day 20",127 % of control [5 of 6 alive]
same,T/C,"dose: 25.0 mg/kg/injection, schedule: Q01DX009 (ip), vehicle: saline, evaluated on day 30",135 % of control
same,survivor count,"dose: 30.0 mg/kg/injection, schedule: Q01DX005 (ip), vehicle: saline",5 of 6
same,T/C,"dose: 37.5 mg/kg/injection, schedule: Q01DX009 (ip), vehicle: saline",125 % of control [5 of 6 alive]
same,survivor count,"dose: 60.0 mg/kg/injection, schedule: Q01DX005 (ip), vehicle: suspension in saline",2 of 6
same,survivor count,"dose: 100.0 mg/kg/injection, schedule: Q04DX003 (ip), vehicle: saline",4 of 6
same,survivor count,"dose: 120.0 mg/kg/injection, schedule: Q01DX005 (ip), vehicle: suspension in saline",0 of 6
same,survivor count,"dose: 200.0 mg/kg/injection, schedule: Q04DX003 (ip), vehicle: saline",0 of 6
same,survivor count,"dose: 240.0 mg/kg/injection, schedule: Q01DX005 (ip), vehicle: suspension in saline",0 of 6
c1cnc2nc3c4ccccc4c4ccccc4c3nc2c1,survivor count,"dose: 400.0 mg/kg/injection, schedule: Q01DX009 (ip), vehicle: saline with Tween-80",2 of 6
CCN(CC)C(=NC(C)C)c1ccccc1,survivor count,"dose: 50.0 mg/kg/injection, schedule: Q01DX009 (ip), vehicle: saline",0 of 6
same,survivor count,[1],0 of 6
same,survivor count,[2],0 of 6
CSc1ccnc2ccccc12,survivor count,"dose: 100.0 mg/kg/injection, schedule: Q01DX009 (ip), vehicle: other",2 of 6
same,survivor count,"dose: 200.0 mg/kg/injection, schedule: Q01DX009 (ip), vehicle: other",0 of 6
CC1CN=C(c2ccc(NC(=O)NCCCNC(=O)Nc3ccc(C4=NCC(C)N4)cc3)cc2)N1 (stereo not drawn),T/C,"dose: 12.5 mg/kg/injection, schedule: Q01DX005 (ip), vehicle: Klucel (hydroxypropylcellulose) (HPC)",125 % of control
same,T/C,"dose: 25.0 mg/kg/injection, schedule: Q01DX005 (ip), vehicle: Klucel (hydroxypropylcellulose) (HPC)",134 % of control
same,survivor count,[3],3 of 6
same,survivor count,[4],0 of 6
CCCC[As](CCCC)SCC1OC(OC(C)=O)C(OC(C)=O)C(OC(C)=O)C1OC(C)=O (stereo not drawn),survivor count,"dose: 200.0 mg/kg/injection, schedule: Q01DX009 (ip), vehicle: Klucel (hydroxypropylcellulose) (HPC)",6 of 6
CCCCCCCCCCC(O)C(=O)O (stereo not drawn),survivor count,[5],4 of 6
CCOC(=O)C1=CNc2c(C#N)cnn2C1(C(=O)OCC)c1cn(C)c2ccccc12 (stereo not drawn),survivor count,[6],6 of 6
same,survivor count,[7],6 of 6
same,survivor count,[8],6 of 6
O=c1nc(Oc2ccccc2)nc2ncccn12,T/C,"dose: 25.0 mg/kg/injection, schedule: Q01DX009 (ip), vehicle: saline with Tween-80",137 % of control
CCOC(CN/C(=C/c1ccc2ccccc2[n+]1C)SC)OCC,survivor count,[9],0 of 6
O=C1C2=C(Nc3ccccc3N2)OC1c1ccc(Cl)cc1 (stereo not drawn),survivor count,[10],6 of 6
same,survivor count,[11],5 of 6
same,survivor count,[12],5 of 6
COc1ccc(C(=O)N2C3C4C=CC(C4)C3N2C(=O)c2ccc(OC)cc2)cc1 (stereo not drawn),survivor count,[3],6 of 6
C[P+]1(C)CCc2c1ccc1ccccc21,survivor count,[13],3 of 6
same,survivor count,[5],0 of 6
CCC(C)N(CCNc1cc(OC)cc2cccnc12)CCC(C)C (stereo not drawn),survivor count,"dose: 200.0 mg/kg/injection, schedule: Q01DX005 (ip), vehicle: saline",0 of 5
Cc1cccc2cc3ccccc3c[n+]12,survivor count,"dose: 50.0 mg/kg/injection, schedule: Q01DX005 (ip), vehicle: saline + Tween-80 + alcohol",4 of 6
same,survivor count,[6],0 of 5
same,survivor count,"dose: 100.0 mg/kg/injection, schedule: Q01DX005 (ip), vehicle: saline + Tween-80 + alcohol",0 of 6
same,survivor count,[7],0 of 5
same,survivor count,"dose: 200.0 mg/kg/injection, schedule: Q01DX005 (ip), vehicle: saline + Tween-80 + alcohol",0 of 6
same,survivor count,[8],0 of 5
Cc1cc(OC(=O)Nc2ccc(C)c([N+](=O)[O-])c2)c(Br)cc1Cl,survivor count,"dose: 200.0 mg/kg/injection, schedule: Q01DX009 (ip), vehicle: saline + alcohol",1 of 6
CCC(SC)C(=O)N(C)c1ccccc1 (stereo not drawn),survivor count,[14],6 of 6
COc1ccc(NC(=O)Nc2ccc(NC(C)=O)cc2)c(OC)c1,survivor count,[9],6 of 6
same,survivor count,"dose: 120.0 mg/kg/injection, schedule: Q01DX005 (ip), vehicle: saline with Tween-80",6 of 6
same,survivor count,"dose: 240.0 mg/kg/injection, schedule: Q01DX005 (ip), vehicle: saline with Tween-80",5 of 6
NCCSC(C[N+](=O)[O-])c1ccc2c(c1)OCO2 (stereo not drawn),T/C,[14],129 % of control
same,T/C,[13],135 % of control
same,survivor count,[5],4 of 6
COC(=O)Nc1nc2cc(OC)c(OC)cc2c(=O)[nH]1,survivor count,[7],1 of 6
same,survivor count,[8],0 of 6
COc1cc(C/C(=C\c2ccc(OC)c(OCc3ccccc3)c2)[N+](=O)[O-])ccc1OCc1ccccc1,survivor count,"dose: 75.0 mg/kg/injection, schedule: Q04DX003 (ip), vehicle: Klucel (hydroxypropylcellulose) (HPC)",6 of 6
same,survivor count,"dose: 150.0 mg/kg/injection, schedule: Q04DX003 (ip), vehicle: Klucel (hydroxypropylcellulose) (HPC)",6 of 6
same,survivor count,"dose: 300.0 mg/kg/injection, schedule: Q04DX003 (ip), vehicle: Klucel (hydroxypropylcellulose) (HPC)",6 of 6
[Co].[N-]=C=S.[N-]=C=S.[N-]=C=S.[NH-]CC[N-]CC[NH-],survivor count,"dose: 11.0 mg/kg/injection, schedule: Q01DX009 (ip), vehicle: saline",6 of 6
same,survivor count,[1],3 of 6
same,survivor count,[2],0 of 6
O=C(Nc1ccc(CCc2ccc(NC(=O)C34CC5CC(CC(C5)C3)C4)cc2)cc1)C12CC3CC(CC(C3)C1)C2,survivor count,[8],6 of 6
Nc1cnnc2nc[nH]c12,survivor count,[4],0 of 6
O=C(NC(Cc1ccccc1)C(=O)O)OCC1c2ccccc2-c2ccccc21 (stereo not drawn),survivor count,[4],1 of 6
COc1ccc(CSC(=S)Nc2cccc(C(F)(F)F)c2)cc1,survivor count,"dose: 100.0 mg/kg/injection, schedule: Q01DX009 (ip), vehicle: suspension in saline",2 of 6
S=C1CC2CCCC(C2)N1 (stereo not drawn),survivor count,"dose: 15.0 mg/kg/injection, schedule: Q01DX005 (ip), vehicle: Klucel (hydroxypropylcellulose) (HPC)",6 of 6
same,survivor count,"dose: 30.0 mg/kg/injection, schedule: Q01DX005 (ip), vehicle: Klucel (hydroxypropylcellulose) (HPC)",0 of 6
same,survivor count,[10],0 of 6
same,survivor count,[11],0 of 6
same,survivor count,[12],0 of 6
O=C1c2ccc3ccccc3c2CCC1C1([n+]2ccccc2)CCc2c(ccc3ccccc23)C1=O (stereo not drawn),T/C,"dose: 50.0 mg/kg/injection, schedule: Q01DX005 (ip), vehicle: Klucel (hydroxypropylcellulose) (HPC), evaluated on day 20",108 and 112 % of control
same,T/C,"dose: 50.0 mg/kg/injection, schedule: Q01DX005 (ip), vehicle: Klucel (hydroxypropylcellulose) (HPC), evaluated on day 30",121 and 124 % of control
same,survivor count,[3],1 of 5
same,survivor count,[4],0 of 5
COc1ccc(OC)c(NC(=O)C2=C(C)NC(C)=C(C(=O)Nc3cc(OC)ccc3OC)C2c2cccc([N+](=O)[O-])c2)c1,survivor count,[10],6 of 6
same,survivor count,[11],6 of 6
same,survivor count,[12],6 of 6
